Source: the supplement of paper PMC10849652
The other results are listed elsewhere or left out. Residues, ends and D or L forms follow the SMILES beside them. *: point of attachment. Cbz = O=C(OCc1ccccc1)*

Amino acid sequences for entries named in this document (tags omitted). A change or cut given only in a name is not applied to a line headed by its entry.
UniProt Q9UNE7: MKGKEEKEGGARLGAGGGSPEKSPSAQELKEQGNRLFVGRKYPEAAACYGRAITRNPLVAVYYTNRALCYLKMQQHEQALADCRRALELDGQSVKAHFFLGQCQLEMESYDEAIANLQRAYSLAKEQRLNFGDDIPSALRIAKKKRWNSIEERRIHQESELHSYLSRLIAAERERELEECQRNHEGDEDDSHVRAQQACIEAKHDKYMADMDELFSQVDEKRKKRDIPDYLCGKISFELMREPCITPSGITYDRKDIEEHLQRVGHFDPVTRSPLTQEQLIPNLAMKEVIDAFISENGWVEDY
UniProt Q12962, whole entry, looked up: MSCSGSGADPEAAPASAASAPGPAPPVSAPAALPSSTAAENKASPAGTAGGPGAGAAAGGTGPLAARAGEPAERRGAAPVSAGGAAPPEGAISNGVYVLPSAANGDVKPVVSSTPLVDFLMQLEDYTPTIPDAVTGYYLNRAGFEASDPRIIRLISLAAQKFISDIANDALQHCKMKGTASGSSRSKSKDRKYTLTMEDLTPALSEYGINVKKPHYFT
UniProt O75410: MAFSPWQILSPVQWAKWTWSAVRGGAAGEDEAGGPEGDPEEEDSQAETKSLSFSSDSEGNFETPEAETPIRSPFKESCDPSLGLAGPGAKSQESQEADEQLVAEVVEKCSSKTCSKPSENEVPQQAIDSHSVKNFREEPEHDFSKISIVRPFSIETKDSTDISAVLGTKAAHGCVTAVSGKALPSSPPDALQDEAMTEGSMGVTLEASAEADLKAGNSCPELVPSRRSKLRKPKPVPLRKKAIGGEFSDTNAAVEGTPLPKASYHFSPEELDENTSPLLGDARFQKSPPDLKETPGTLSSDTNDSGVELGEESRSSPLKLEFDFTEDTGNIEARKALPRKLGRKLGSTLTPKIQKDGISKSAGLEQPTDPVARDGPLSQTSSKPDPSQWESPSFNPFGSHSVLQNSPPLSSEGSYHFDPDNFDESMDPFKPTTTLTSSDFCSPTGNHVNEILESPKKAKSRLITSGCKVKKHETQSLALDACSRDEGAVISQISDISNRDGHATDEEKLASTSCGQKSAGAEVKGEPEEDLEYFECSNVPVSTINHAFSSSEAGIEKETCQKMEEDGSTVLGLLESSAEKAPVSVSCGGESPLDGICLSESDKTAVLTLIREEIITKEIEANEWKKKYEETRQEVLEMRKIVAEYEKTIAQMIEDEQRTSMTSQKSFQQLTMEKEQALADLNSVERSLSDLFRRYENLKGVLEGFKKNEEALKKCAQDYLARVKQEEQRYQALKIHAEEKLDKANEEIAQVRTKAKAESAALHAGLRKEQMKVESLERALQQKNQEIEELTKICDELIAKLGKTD
UniProt O60499: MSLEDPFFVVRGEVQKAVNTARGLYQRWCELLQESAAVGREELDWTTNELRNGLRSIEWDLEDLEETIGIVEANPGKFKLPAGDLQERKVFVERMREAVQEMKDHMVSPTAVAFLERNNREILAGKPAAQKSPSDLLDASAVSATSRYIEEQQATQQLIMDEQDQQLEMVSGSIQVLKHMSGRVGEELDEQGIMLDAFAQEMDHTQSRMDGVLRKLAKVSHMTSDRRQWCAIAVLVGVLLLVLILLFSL
UniProt O43426, whole entry, looked up: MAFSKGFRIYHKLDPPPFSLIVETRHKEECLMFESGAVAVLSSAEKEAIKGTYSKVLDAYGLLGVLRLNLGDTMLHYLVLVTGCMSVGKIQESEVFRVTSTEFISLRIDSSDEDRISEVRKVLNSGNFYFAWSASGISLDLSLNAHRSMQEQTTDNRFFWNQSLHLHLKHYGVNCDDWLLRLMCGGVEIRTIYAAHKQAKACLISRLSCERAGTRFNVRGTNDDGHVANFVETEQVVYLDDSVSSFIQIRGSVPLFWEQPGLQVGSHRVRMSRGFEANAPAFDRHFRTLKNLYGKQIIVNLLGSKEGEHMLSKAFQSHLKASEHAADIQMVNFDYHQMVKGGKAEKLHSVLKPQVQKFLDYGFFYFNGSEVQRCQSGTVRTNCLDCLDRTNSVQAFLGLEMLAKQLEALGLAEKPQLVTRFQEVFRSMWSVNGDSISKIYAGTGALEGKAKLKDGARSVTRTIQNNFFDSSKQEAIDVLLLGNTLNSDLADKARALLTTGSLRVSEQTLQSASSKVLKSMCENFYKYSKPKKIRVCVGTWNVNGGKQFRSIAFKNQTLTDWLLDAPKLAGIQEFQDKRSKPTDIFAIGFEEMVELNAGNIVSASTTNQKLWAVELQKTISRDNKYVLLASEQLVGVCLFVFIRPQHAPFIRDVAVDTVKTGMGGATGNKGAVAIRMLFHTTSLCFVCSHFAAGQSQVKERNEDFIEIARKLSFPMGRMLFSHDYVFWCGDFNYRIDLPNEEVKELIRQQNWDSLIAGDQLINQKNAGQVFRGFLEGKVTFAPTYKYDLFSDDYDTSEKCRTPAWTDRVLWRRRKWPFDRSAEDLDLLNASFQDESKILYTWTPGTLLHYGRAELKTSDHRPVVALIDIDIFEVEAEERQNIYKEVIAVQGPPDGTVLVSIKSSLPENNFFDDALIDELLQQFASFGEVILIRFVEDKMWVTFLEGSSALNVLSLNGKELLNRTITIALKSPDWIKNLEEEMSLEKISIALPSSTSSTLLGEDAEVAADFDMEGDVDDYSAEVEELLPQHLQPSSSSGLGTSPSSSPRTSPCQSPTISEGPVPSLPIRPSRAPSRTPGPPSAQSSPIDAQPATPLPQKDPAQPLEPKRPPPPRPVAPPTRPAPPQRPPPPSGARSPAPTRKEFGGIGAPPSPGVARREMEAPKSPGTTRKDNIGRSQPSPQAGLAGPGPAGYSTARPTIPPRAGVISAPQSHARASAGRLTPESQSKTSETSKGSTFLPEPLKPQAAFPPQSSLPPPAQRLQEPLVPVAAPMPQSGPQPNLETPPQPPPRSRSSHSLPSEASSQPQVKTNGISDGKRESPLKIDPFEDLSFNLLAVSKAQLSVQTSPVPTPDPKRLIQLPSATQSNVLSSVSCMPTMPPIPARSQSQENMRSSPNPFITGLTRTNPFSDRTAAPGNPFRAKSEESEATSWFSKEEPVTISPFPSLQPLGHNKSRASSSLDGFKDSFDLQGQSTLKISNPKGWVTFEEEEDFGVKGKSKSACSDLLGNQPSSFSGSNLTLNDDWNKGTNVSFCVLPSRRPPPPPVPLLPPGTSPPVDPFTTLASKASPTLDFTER
UniProt Q13277: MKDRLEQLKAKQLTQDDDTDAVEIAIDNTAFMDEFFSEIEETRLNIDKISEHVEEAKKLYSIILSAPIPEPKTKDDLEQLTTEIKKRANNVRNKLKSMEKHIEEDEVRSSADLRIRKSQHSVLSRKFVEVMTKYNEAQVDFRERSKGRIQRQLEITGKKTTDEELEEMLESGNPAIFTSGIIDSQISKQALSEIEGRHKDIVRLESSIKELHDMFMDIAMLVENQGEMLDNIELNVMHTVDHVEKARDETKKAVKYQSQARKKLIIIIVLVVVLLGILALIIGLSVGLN
UniProt P0DMM9: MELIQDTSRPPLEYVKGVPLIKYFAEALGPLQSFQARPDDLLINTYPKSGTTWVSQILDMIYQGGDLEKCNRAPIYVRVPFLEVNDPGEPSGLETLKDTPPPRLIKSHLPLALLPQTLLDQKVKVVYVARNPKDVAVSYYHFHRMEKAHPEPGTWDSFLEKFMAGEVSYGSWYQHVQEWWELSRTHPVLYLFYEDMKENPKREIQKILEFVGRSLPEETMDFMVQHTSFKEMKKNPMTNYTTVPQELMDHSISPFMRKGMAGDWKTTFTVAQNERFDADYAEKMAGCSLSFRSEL
UniProt Q8NBJ7: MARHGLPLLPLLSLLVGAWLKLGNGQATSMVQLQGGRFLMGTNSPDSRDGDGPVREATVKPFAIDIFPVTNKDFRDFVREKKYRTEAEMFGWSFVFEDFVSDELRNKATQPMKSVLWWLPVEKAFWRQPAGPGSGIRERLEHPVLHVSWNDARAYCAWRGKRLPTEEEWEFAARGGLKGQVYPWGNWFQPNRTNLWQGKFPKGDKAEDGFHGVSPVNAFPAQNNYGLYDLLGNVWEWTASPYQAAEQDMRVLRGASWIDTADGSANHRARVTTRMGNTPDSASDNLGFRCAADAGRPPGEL
UniProt Q9NRL3: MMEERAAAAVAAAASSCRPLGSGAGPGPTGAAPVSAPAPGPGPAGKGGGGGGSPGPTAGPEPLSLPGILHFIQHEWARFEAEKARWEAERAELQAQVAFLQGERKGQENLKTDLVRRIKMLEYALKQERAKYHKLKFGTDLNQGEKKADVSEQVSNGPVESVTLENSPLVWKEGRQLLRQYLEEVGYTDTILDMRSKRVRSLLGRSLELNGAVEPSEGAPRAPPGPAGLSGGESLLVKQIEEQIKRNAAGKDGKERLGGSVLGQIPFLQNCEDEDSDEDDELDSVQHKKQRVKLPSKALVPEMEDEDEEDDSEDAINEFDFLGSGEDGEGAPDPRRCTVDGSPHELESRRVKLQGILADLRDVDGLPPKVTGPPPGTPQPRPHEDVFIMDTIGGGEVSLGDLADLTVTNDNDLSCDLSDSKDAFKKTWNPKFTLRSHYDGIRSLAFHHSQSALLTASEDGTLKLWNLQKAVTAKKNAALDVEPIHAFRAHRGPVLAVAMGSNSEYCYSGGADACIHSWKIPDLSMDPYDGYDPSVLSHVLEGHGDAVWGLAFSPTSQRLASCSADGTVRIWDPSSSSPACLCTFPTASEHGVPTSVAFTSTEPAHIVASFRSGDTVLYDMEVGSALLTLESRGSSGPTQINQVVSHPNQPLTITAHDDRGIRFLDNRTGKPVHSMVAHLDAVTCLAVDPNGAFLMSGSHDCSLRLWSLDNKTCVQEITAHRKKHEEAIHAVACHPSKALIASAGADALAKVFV
UniProt Q12846: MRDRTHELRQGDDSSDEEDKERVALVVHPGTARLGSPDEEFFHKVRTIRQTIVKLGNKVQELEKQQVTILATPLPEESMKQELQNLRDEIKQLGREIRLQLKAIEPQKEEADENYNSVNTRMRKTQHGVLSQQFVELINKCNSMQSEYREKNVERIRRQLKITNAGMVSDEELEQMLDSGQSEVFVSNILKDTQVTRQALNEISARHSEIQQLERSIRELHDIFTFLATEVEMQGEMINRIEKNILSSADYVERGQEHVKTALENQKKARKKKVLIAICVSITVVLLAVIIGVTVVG
UniProt Q9UMZ2: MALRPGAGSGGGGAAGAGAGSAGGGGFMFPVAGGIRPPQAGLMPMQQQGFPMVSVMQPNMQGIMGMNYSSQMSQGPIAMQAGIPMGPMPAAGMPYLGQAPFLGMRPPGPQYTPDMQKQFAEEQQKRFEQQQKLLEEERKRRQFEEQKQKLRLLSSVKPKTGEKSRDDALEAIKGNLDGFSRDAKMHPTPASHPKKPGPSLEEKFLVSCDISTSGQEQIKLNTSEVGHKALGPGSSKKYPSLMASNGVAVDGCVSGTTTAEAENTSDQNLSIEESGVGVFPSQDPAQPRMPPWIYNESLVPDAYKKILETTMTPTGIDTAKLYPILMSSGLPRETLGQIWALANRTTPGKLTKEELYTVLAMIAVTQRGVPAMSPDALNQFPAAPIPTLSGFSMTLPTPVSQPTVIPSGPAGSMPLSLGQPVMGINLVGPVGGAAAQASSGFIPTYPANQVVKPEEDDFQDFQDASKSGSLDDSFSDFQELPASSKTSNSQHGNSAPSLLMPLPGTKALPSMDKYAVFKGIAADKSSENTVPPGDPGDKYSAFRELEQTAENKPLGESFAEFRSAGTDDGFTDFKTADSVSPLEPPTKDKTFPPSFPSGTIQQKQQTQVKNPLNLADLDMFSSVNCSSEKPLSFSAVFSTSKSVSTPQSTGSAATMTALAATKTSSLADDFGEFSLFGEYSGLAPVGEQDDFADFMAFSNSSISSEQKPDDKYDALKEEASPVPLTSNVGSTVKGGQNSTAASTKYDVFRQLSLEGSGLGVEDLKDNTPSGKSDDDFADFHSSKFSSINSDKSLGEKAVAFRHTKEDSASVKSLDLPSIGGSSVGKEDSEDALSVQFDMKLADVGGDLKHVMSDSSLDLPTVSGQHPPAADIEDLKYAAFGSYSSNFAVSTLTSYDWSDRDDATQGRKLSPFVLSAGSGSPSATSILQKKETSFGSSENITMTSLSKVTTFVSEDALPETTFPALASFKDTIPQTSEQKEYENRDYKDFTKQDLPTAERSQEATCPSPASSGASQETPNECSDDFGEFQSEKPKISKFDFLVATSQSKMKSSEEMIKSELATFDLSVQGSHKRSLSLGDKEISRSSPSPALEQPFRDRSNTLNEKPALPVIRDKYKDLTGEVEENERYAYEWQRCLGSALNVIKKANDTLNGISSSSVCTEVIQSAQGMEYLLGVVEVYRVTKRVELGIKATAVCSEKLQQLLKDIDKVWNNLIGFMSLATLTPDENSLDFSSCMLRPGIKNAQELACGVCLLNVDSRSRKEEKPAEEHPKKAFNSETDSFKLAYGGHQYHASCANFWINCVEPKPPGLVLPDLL

What was measured:
Test in all cases: log2 fold change, soluble protein after heating vs DMSO (PISA); higher = thermal stabilisation; K562 cells, 10 uM, 30 min; active = over 0.2 and 3.5 SD of the protein, either way, in both replicates (recomputed)
IRAK-1-4 Inhibitor I = compound: C1COCCN1CCN2C3=CC=CC=C3N=C2NC(=O)C4=CC(=CC=C4)[N+](=O)[O-] [IRAK-1-4 Inhibitor I]
Summary of the method: (§1)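 K562 cells (2×10^6 cells/mL) were treated with 10 μM compound for 30 min, and aliquots were heated for 3 min over 48°C-58°C. Pooled aliquots were extracted in PBS with 0.5% NP-40 at 4°C, and the supernatant after 21,000xg for 90 min was measured by TMTpro 16plex LC-MS/MS with channel sums equalised. Reported thermal stability, relative to control samples and from duplicates, is a log2 fold change.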

ibrutinib = compound: C=CC(=O)N1CCC[C@@H](n2nc(-c3ccc(Oc4ccccc4)cc3)c3c(N)ncnc32)C1 [ibrutinib]
Summary of the method: as §1

[1] = compound: CC(=O)c1cnc2ccc(-c3cc(Cl)c(O)c(Cl)c3)nc2c1N[C@H]1CC[C@H](CN(C)C)CC1
Summary of the method: as §1

ralimetinib = compound: CC(C)(C)Cn1c(N)nc2ccc(-c3[nH]c(C(C)(C)C)nc3-c3ccc(F)cc3)nc21 [ralimetinib]
Summary of the method: as §1

[2] = compound: CC(C)(O)CC(=O)NCCn1ccc2ncnc(Nc3ccc(Oc4cccc(C(F)(F)F)c4)c(Cl)c3)c21
Summary of the method: as §1

[3] = compound: CC(C)C1=C2N=C(C=C(N2N=C1)NCC3=CC=CC=C3)NCCCCCCN
Summary of the method: as §1

[4] = compound: CC(C)C[C@@H](C=O)NC(=O)[C@H](CC(C)C)NC(=O)[C@H](CC(C)C)NC(=O)OCc1ccccc1
Summary of the method: as §1

pinometostat = compound: CC(C)N(C[C@H]1O[C@@H](n2cnc3c(N)ncnc32)[C@H](O)[C@@H]1O)[C@H]1C[C@@H](CCc2nc3cc(C(C)(C)C)ccc3[nH]2)C1 [pinometostat]
Summary of the method: as §1

[5] = compound: CC1=C(C(CC(=O)N1)C2=CC=C(C=C2)C(F)(F)F)C(=O)NC3=C(C=C4C(=C3)C=NN4)F
Summary of the method: as §1

[6] = compound: CC1=C(C2=C(C=C1)C(=O)C3=CC=CC=C3N2CCCN)C
Summary of the method: as §1

[7] = compound: CC1=C(C=C(C=C1)NC(=O)C2=CC(=CC=C2)C(C)(C)C#N)NC3=CC4=C(C=C3)N=CN(C4=O)C
Summary of the method: as §1

[8] = compound: CC1=C(C=C(C=C1)NC(=O)C2=CC(=CC=C2)N(C)C)NC(=O)C3=CC=C(C=C3)O
Summary of the method: as §1

[9] = compound: CC1=CC=C(C=C1)SC2=C3C=C(SC3=CN=C2)C(=O)N
Summary of the method: as §1

[10] = compound: CC1=NC(=CC=C1)C2=C(N=C(N2)C(C)(C)C)C3=CC4=NC=CN=C4C=C3
Summary of the method: as §1

Nexturastat A = compound: CCCCN(Cc1ccc(C(=O)NO)cc1)C(=O)Nc1ccccc1 [Nexturastat A]
Summary of the method: as §1

vemurafenib = compound: CCCS(=O)(=O)Nc1ccc(F)c(C(=O)c2c[nH]c3ncc(-c4ccc(Cl)cc4)cc23)c1F [vemurafenib]
Summary of the method: as §1

[11] = compound: CCCS(=O)(=O)Nc1ccc(F)c(C(=O)c2c[nH]c3ncc(Cl)cc23)c1F
Summary of the method: as §1

[12] = compound: CCCc1cc(C)[nH]c(=O)c1CNC(=O)c1cc(-c2ccnc(N3CCN(C)CC3)c2)cc2c1cnn2C(C)C
Summary of the method: as §1

givinostat = compound: CCN(CC)Cc1ccc2cc(COC(=O)Nc3ccc(C(=O)NO)cc3)ccc2c1 [givinostat]
Summary of the method: as §1

barasertib = compound: CCN(CCCOc1ccc2c(Nc3cc(CC(=O)Nc4cccc(F)c4)[nH]n3)ncnc2c1)CCOP(=O)(O)O [barasertib]
Summary of the method: as §1

Measured: log2 fold change

STUB1 (UniProt Q9UNE7)
inactive: IRAK-1-4 Inhibitor I -0.096 | ibrutinib -0.057 | [1] 0.013 | ralimetinib 0.012 | [2] -0.001 | [3] -0.218 | [4] 0.137 | pinometostat 0.303 | [5] -0.023 | [6] -0.037 | [7] -0.007 | [8] 0.11 | [9] -0.035 | [10] -0.076 | Nexturastat A 0.3 | vemurafenib 0.035 | [11] -0.029 | [12] 0.061 | givinostat 0.05 | barasertib 0.002

TAF10 (UniProt Q12962)
inactive: IRAK-1-4 Inhibitor I -0.035 | ibrutinib 0.051 | [1] 0.015 | ralimetinib -0.011 | [2] -0.038 | [3] 0.129 | [4] -0.068 | pinometostat -0.062 | [5] 0.085 | [6] 0.109 | [7] 0.072 | [8] -0.034 | [9] -0.004 | [10] 0.066 | Nexturastat A -0.062 | vemurafenib 0.079 | [11] 0.035 | [12] 0.008 | givinostat -0.114 | barasertib -0.037

SYNJ2BP-COX16, A0A087WYV9
inactive: IRAK-1-4 Inhibitor I 0.058 | ibrutinib 0.067 | [1] -0.036 | ralimetinib -0.04 | [2] 0.042 | [3] 0.002 | [4] 0.053 | pinometostat 0.007 | [5] -0.031 | [6] -0.066 | [7] 0.036 | [8] -0.028 | [9] -0.078 | [10] -0.034 | Nexturastat A 0.083 | vemurafenib 0.004 | [11] -0.006 | [12] -0.028 | givinostat -0.054 | barasertib -0.024

TACC1 isoform 2 (UniProt O75410)
inactive: IRAK-1-4 Inhibitor I 0.042 | ibrutinib -0.034 | [1] 0.123 | ralimetinib -0.025 | [2] -0.007 | [3] -0.049 | [4] 0.022 | pinometostat -0.008 | [5] 0.005 | [6] 0 | [7] -0.028 | [8] 0 | [9] 0.013 | [10] -0.003 | Nexturastat A -0.055 | vemurafenib 0.009 | [11] -0.026 | [12] -0.08 | givinostat -0.023 | barasertib 0.029

STX10 (UniProt O60499)
inactive: IRAK-1-4 Inhibitor I -0.083 | ibrutinib -0.164 | [1] -0.037 | ralimetinib -0.04 | [2] 0.085 | [3] 0.028 | [4] 0.024 | pinometostat -0.014 | [5] 0.059 | [6] 0.005 | [7] -0.087 | [8] 0.007 | [9] 0.051 | [10] 0.087 | Nexturastat A -0.019 | vemurafenib -0.038 | [11] 0.01 | [12] -0.005 | givinostat 0.012 | barasertib 0.272

SYNJ1 (UniProt O43426)
inactive: IRAK-1-4 Inhibitor I 0.009 | ibrutinib -0.01 | [1] -0.066 | ralimetinib 0.136 | [2] 0.069 | [3] 0.137 | [4] 0.002 | pinometostat 0.048 | [5] 0.019 | [6] 0.108 | [7] -0.142 | [8] -0.034 | [9] -0.011 | [10] -0.057 | Nexturastat A 0.096 | vemurafenib 0.059 | [11] -0.035 | [12] -0.145 | givinostat 0.073 | barasertib -0.02

2 records picked at random from those above, as already listed:
STUB1 (UniProt Q9UNE7)
inactive: IRAK-1-4 Inhibitor I -0.096 | ibrutinib -0.057 | [1] 0.013 | ralimetinib 0.012 | [2] -0.001 | [3] -0.218 | [4] 0.137 | pinometostat 0.303 | [5] -0.023 | [6] -0.037 | [7] -0.007 | [8] 0.11 | [9] -0.035 | [10] -0.076 | Nexturastat A 0.3 | vemurafenib 0.035 | [11] -0.029 | [12] 0.061 | givinostat 0.05 | barasertib 0.002

TAF10 (UniProt Q12962)
inactive: IRAK-1-4 Inhibitor I -0.035 | ibrutinib 0.051 | [1] 0.015 | ralimetinib -0.011 | [2] -0.038 | [3] 0.129 | [4] -0.068 | pinometostat -0.062 | [5] 0.085 | [6] 0.109 | [7] 0.072 | [8] -0.034 | [9] -0.004 | [10] 0.066 | Nexturastat A -0.062 | vemurafenib 0.079 | [11] 0.035 | [12] 0.008 | givinostat -0.114 | barasertib -0.037

Later entries

STX3 (UniProt Q13277)
inactive: IRAK-1-4 Inhibitor I -0.035 | ibrutinib -0.006 | [1] 0.018 | ralimetinib -0.013 | [2] 0.04 | [3] -0.095 | [4] 0.056 | pinometostat -0.004 | [5] -0.063 | [6] 0.022 | [7] 0.044 | [8] 0.025 | [9] 0.036 | [10] 0.016 | Nexturastat A 0.039 | vemurafenib 0.071 | [11] 0.079 | [12] 0.143 | givinostat -0.025 | barasertib 0.01

SULT1A3 isoform 3 (UniProt P0DMM9)
inactive: IRAK-1-4 Inhibitor I -0.028 | ibrutinib -0.006 | [1] -0.087 | ralimetinib -0.09 | [2] -0.094 | [3] -0.1 | [4] 0.02 | pinometostat 0.03 | [5] 0.074 | [6] -0.125 | [7] -0.012 | [8] -0.038 | [9] 0.164 | [10] 0.022 | Nexturastat A 0.07 | vemurafenib 0.048 | [11] -0.027 | [12] 0.154 | givinostat -0.015 | barasertib 0.051

SUMF2 (UniProt Q8NBJ7)
inactive: IRAK-1-4 Inhibitor I 0.032 | ibrutinib -0.014 | [1] 0.001 | ralimetinib -0.042 | [2] 0.044 | [3] -0.062 | [4] 0.05 | pinometostat 0.032 | [5] 0.014 | [6] -0.073 | [7] 0.002 | [8] 0.003 | [9] 0.028 | [10] -0.027 | Nexturastat A 0.004 | vemurafenib 0.031 | [11] -0.048 | [12] -0.054 | givinostat -0.041 | barasertib -0.008

STOML2 (UniProt Q9UJZ1)
inactive: IRAK-1-4 Inhibitor I -0.016 | ibrutinib -0.011 | [1] -0.031 | ralimetinib 0.008 | [2] 0.007 | [3] 0.043 | [4] -0.035 | pinometostat -0.023 | [5] 0.008 | [6] 0.019 | [7] 0.023 | [8] -0.01 | [9] -0.04 | [10] 0.028 | Nexturastat A 0.027 | vemurafenib -0.008 | [11] -0.049 | [12] -0.01 | givinostat -0.006 | barasertib -0.002

TACO1 (UniProt Q9BSH4)
inactive: IRAK-1-4 Inhibitor I -0.187 | ibrutinib -0.11 | [1] -0.153 | ralimetinib 0.186 | [2] -0.406 | [3] -0.087 | [4] -0.238 | pinometostat -0.211 | [5] -0.057 | [6] 0.124 | [7] 0.091 | [8] -0.156 | [9] 0.249 | [10] 0.056 | Nexturastat A -0.186 | vemurafenib 0.066 | [11] 0.225 | [12] 0.207 | givinostat 0.089 | barasertib 0.137

STRN4 isoform 3 (UniProt Q9NRL3)
inactive: IRAK-1-4 Inhibitor I 0.003 | ibrutinib -0.063 | [1] -0.026 | ralimetinib 0.006 | [2] -0.061 | [3] 0.003 | [4] -0.006 | pinometostat 0.019 | [5] -0.067 | [6] -0.009 | [7] -0.059 | [8] 0.01 | [9] -0.013 | [10] 0.007 | Nexturastat A -0.024 | vemurafenib 0.059 | [11] -0.021 | [12] 0.012 | givinostat -0.016 | barasertib 0.099

STK39 (UniProt Q9UEW8)
active: [1] -0.3
inactive: IRAK-1-4 Inhibitor I 0.048 | ibrutinib -0.006 | ralimetinib 0.022 | [2] -0.09 | [3] -0.124 | [4] -0.018 | pinometostat -0.02 | [6] 0.007 | [7] -0.049 | [8] 0.006 | [9] -0.016 | [10] 0.033 | Nexturastat A 0.018 | vemurafenib 0.015 | [11] 0.032 | [12] 0.053 | givinostat 0.033 | barasertib 0.033

STX4 (UniProt Q12846)
inactive: IRAK-1-4 Inhibitor I -0.051 | ibrutinib 0.048 | [1] 0.012 | ralimetinib 0.058 | [2] 0.025 | [3] 0.108 | [4] -0.063 | pinometostat -0.051 | [5] -0.005 | [6] 0.013 | [7] -0.003 | [8] -0.071 | [9] 0.009 | [10] 0.024 | Nexturastat A -0.033 | vemurafenib 0.017 | [11] 0.012 | [12] 0 | givinostat 0.03 | barasertib 0.026

SYNRG (UniProt Q9UMZ2)
inactive: IRAK-1-4 Inhibitor I 0.019 | ibrutinib -0.039 | [1] 0.067 | ralimetinib 0.099 | [2] 0.068 | [3] -0.016 | [4] -0.064 | pinometostat 0.014 | [5] 0.025 | [6] -0.05 | [7] -0.012 | [8] -0.016 | [9] 0 | [10] -0.014 | Nexturastat A 0.003 | vemurafenib 0.036 | [11] 0.052 | [12] -0.126 | givinostat -0.019 | barasertib 0.015

STK38 (UniProt Q15208)
active: [1] -0.308
inactive: IRAK-1-4 Inhibitor I 0.004 | ibrutinib -0.073 | ralimetinib 0.101 | [2] -0.085 | [3] -0.089 | [4] 0.016 | pinometostat 0.058 | [6] -0.026 | [7] 0.099 | [8] -0.054 | [9] 0.013 | [10] 0.004 | Nexturastat A -0.062 | vemurafenib 0.091 | [11] 0.12 | [12] 0.049 | givinostat 0.048 | barasertib 0.022
